Experimental data as given in the supplement of paper PMC7824004.
The list shows a part of the results. The data scatter; read single values as rough.

system: Candida albicans SN425; test: biofilm OD600 B-score; higher = more biofilm (less inhibition); conditions: 10 µM; assay detail: High-throughput adherence inhibition optical density biofilm assay with C. albicans SN425 in RPMI-1640/MOPS pH 7.0, 384-well plates. …
Procedure: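 High-throughput adherence inhibition optical density biofilm assay with C. albicans SN425 in RPMI-1640/MOPS pH 7.0, 384-well plates. Compound (10 µM) was present only during the 90 min adherence step, then washed out, and the biofilm grew 24 h without compound. Biofilm was read as OD600 after removing the media. Scores are the difference from the mean in standard deviations and the plate B-score.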

SMILES | biofilm OD600 B-score
O=C(Nc1ccc2snnc2c1)N1CCSCC1 | -0.909
CSc1ccc(S(=O)(=O)NC2CCCCC2)cc1 | -2.78
O=C1CN(c2nc(-c3ccc(Cl)cc3)cs2)CCN1 | 3.63
CN1CCN(C(=O)CCCOc2ccccc2)CC1 | 0.0507
CCOCC(O)CS(=O)(=O)c1ccccn1 (stereo unspecified) | -0.0353
COc1ccc(COCC(O)CN2CCN(c3ccccc3)CC2)cc1OC (stereo unspecified) | 1.24
COc1ccc(CC(=O)Nc2c(C)cccc2C)cc1 | -1.09
COc1ccccc1OCCCSC#N | 0.887
O=C(Nc1nncs1)c1ccc(Oc2ccccc2)cc1 | 4.7
COCC(C)NS(=O)(=O)c1ccc(NC(C)=O)cc1 (stereo unspecified) | -0.267
C=CCn1c2ccccc2n2nc(C)c(=O)nc12 | 4.13
Cc1ccc(C(=O)NCCCn2ccnc2)o1 | -0.955
CC1(C)CC(CCN)(c2ccc(F)cc2)CCO1 (stereo unspecified) | 1.67
CC(=O)Nc1cccc(NC(=O)c2ccccc2Cl)c1 | -0.126
CC(=O)C1=C(O)CCC1=NCCc1ccccc1 | -2.12
O=C(Nc1ccc(N2CCCC2)cc1)c1cccnc1 | -0.36
